34 compounds from paper PMC12431657, “Discovery and mechanistic insights of dibenzoylmethane as a broad spectrum inhibitor of coronavirus” (PLOS Pathogens, 2025) can be followed below.

This experiment concerns HCoV-229E. Also on record: species or system Huh-7; HTS, protection from HCoV-229E induced cell death, luminescent cell viability (CellCounting-Lite 2.0), inhibition rate. The conditions noted are these: 24 h post infection, 1 h compound pre-incubation, 10 µM, inhibitor.

Structures can show the parent of a compound that is named as a salt. Where two headings read alike, the source gives them in different places. The whole screen tested about 3,300 compounds, of which about 95 (3%) showed an effect of 50% or more. The list shows a part of the results.

For the compound `C=C(C)[C@@H]1CCC2=CC(=O)C[C@@H](C)[C@]2(C)C1` [Nootkatone], the “229E Inhibition rate” value amounted to 17.6%. Still for that read-out and setting: the value for `CCC/C=C1\OC(=O)C2=C1CC[C@H]1[C@H]3C=C4C(=O)O/C(=C\CCC)[C@@]4(CC3)[C@@H]21` [Levistolide A] was 60.4%; that for `O=c1cc(-c2cc(O)c(O)c(O)c2)oc2cc(O)cc(O)c12` [Tricetin] was 5.6%; that for `C[C@@H]1CC[C@@]2(NC1)O[C@H]1C[C@H]3[C@@H]4CC=C5C[C@@H](O[C@@H]6O[C@H](CO)[C@@H](O[C@@H]7O[C@@H](C)[C@H](O)[C@@H](O)[C@H]7O)[C@H](O)[C@H]6O[C@@H]6O[C@@H](C)[C@H](O)[C@@H](O)[C@H]6O)CC[C@]5(C)[C@H]4CC[C@]3(C)[C@H]1[C@@H]2C` [Solamargine] was 6.1%. As to `Cc1nc2ccccc2c(=O)[nH]1` [2-Methylquinazolin-4-ol], the “229E Inhibition rate” value is reported as 43.6%. Still for that read-out and setting: the value for `OC[C@H](O)C(O)[C@@H](O)CO` [L-Arabinitol] was 0%; that for `O=C1O[C@@H]2[C@@H](O)[C@H](O)[C@@H](CO)O[C@H]2c2c1cc(O)c(O)c2O` [Norbergenin] was 24.1%; that for `C[C@@H]1O[C@@H](O[C@H]2[C@H](O[C@H]3CC[C@@]4(C)[C@@H](CC[C@]5(C)[C@@H]4CC=C4[C@@H]6CC(C)(C)CC[C@]6(C(=O)O[C@@H]6O[C@H](CO[C@@H]7O[C@H](CO)[C@@H](O)[C@H](O)[C@H]7O)[C@@H](O)[C@H](O)[C@H]6O)CC[C@]45C)[C@]3(C)CO)OC[C@H](O)[C@@H]2O)[C@H](O)[C@H](O[C@@H]2O[C@H](CO)[C@@H](O)[C@H](O)[C@H]2O)[C@H]1O` [Macranthoidin A] was 7.7%.

As to `C[C@@H]1O[C@@H](Oc2c(-c3ccc(O)c(O)c3)oc3cc(O)cc(O)c3c2=O)[C@H](O)[C@H](O)[C@H]1O` [Quercitrin], the “229E Inhibition rate” value is on record as 7.3%.

As to `CC(=O)OC[C@H]1O[C@@H](OC(C)=O)[C@H](OC(C)=O)[C@@H](OC(C)=O)[C@@H]1OC(C)=O` [β-D-Glucose pentaacetate], the “229E Inhibition rate” value was 9.5%. Take `NC(=O)CC[C@@H](N)C(=O)O` [D-Glutamine]: the “229E Inhibition rate” value amounted to 10.6%. As to `C[C@@]12CCc3occc3[C@H]1CC[C@@]13C[C@@H](CC[C@H]12)[C@@](O)(CO)C3` [Cafestol], the “229E Inhibition rate” value came to 26.2%. As for `C[C@@H]1O[C@@H](Oc2c(-c3cc(O)c(O)c(O)c3)oc3cc(O)cc(O)c3c2=O)[C@H](O)[C@H](O)[C@H]1O` [Myricitrin], the “229E Inhibition rate” value was 20.6%. On the same count and under the same terms, the value for `COc1cccc(-c2oc3ccccc3c(=O)c2O)c1` [3'-Methoxyflavonol] was 28.1%. Take `O=C(O)/C=C/c1ccccc1` [Cinnamic acid]: for the setting “229E Inhibition rate, 24 h”, the “229E Inhibition rate” value came out at 21%. On the same count and under the same terms, to `N[C@@H](CS)C(=O)O` [L-Cysteine] belongs 12.3%.

As to `COC(=O)C1=CO[C@@H](O[C@@H]2O[C@H](CO)[C@@H](O)[C@H](O)[C@H]2O)[C@@H]2C(CO)=C[C@H](O)[C@H]12` [Methyl deacetylasperulosidate], the “229E Inhibition rate” value turned out to be 11.6%.

As for `COc1cc(C[C@H](C)[C@H](C)Cc2ccc3c(c2)OCO3)ccc1O` [Macelignan], the “229E Inhibition rate” value is listed as 0%. Same read-out and setting: the value for `CC(=O)OC[C@]12[C@H](OC(C)=O)[C@H](OC(C)=O)[C@@H]3[C@@H](OC(C)=O)[C@@]14O[C@@]3(C)COC(=O)c1cccnc1CCC(C)C(=O)O[C@@H]([C@H](OC(=O)c1ccco1)[C@@H]2OC(C)=O)[C@]4(C)O` (stereo partly shown) [Wilforgine] was 7.7%.

For `CN1CCC=C(C(=O)O)C1` [Arecaidine (hydrochloride)], under “229E Inhibition rate, 24 h”, the “229E Inhibition rate” value was 34.4%. For the compound `COc1cc(/C=C/C(O)=C/C(=O)/C=C/c2ccc(O)cc2)ccc1O` [Demethoxycurcumin], the “229E Inhibition rate” value was 23.2%. On the same count and under the same terms, to `C[C@H](CC[C@@H](O[C@@H]1O[C@H](CO[C@@H]2O[C@H](CO)[C@@H](O)[C@H](O)[C@H]2O)[C@@H](O)[C@H](O)[C@H]1O)C(C)(C)O)[C@H]1CC[C@@]2(C)[C@@H]3CC=C4[C@@H](CC[C@H](O)C4(C)C)[C@]3(C)[C@H](O)C[C@]12C` [Mogroside IIA1] belongs 19.7%; to `Nc1ncnc2c1ncn2[C@H]1C[C@H](O)[C@@H](COP(=O)(O)OP(=O)(O)OP(=O)(O)O)O1` [2'-Deoxyadenosine-5'-triphosphate (trisodium)], 14.8%; to `N[C@@H](CCSSCC[C@H](N)C(=O)O)C(=O)O` [L-Homocystine], 7.2%. Consider `CC/C=C\C/C=C\C/C=C\CCCCCCCC(=O)OCC` [Ethyl linolenate], for which the “229E Inhibition rate” value amounted to 15.9%.

Turning to `CC1(C)Oc2cc3oc(-c4cc(O)cc(O[C@@H]5OC[C@@H](O)[C@H](O)[C@H]5O)c4)cc3cc2CC1O` (stereo partly shown) [Mulberroside C], the “229E Inhibition rate” value amounted to 0%.

`O=C(/C=C/c1ccc(O)c(O)c1)O[C@H]1[C@H](O)C[C@](O)(C(=O)O)C[C@H]1OC(=O)/C=C/c1ccc(O)c(O)c1` [3,4-Dicaffeoylquinic acid]: the “229E Inhibition rate” value is 7.5%. `O=Cc1ccc(CO)o1` [5-Hydroxymethylfurfural]: the “229E Inhibition rate” value is recorded as 7.6%. Turning to `CCCCCCc1cccs1` [2-Hexylthiophene], the “229E Inhibition rate” value is reported as 6.8%. In the case of `COc1cc(-c2coc3cc(O)c(OC)c(O)c3c2=O)cc(O)c1OC` [Irigenin], the “229E Inhibition rate” value is listed as 11.4%. Still for that read-out and setting: the value for `OC[C@H]1O[C@@](CO)(OC[C@@]2(OC[C@@]3(OC[C@@]4(OC[C@@]5(O[C@H]6O[C@H](CO)[C@@H](O)[C@H](O)[C@H]6O)O[C@H](CO)[C@@H](O)[C@@H]5O)O[C@H](CO)[C@@H](O)[C@@H]4O)O[C@H](CO)[C@@H](O)[C@@H]3O)O[C@H](CO)[C@@H](O)[C@@H]2O)[C@@H](O)[C@@H]1O` [1,1,1,1-Kestohexaose] was 11.2%. On the same count and under the same terms, the value for `O=C(O)CCCCCCC(=O)O` [Suberic acid] was 0%. Same read-out and setting: to `O=c1c2cc(O[C@@H]3O[C@H](CO)[C@@H](O)[C@H](O)[C@H]3O)c(O)cc2oc2cc(O)c([C@@H]3O[C@H](CO)[C@@H](O)[C@H](O)[C@H]3O)c(O)c12` [Neomangiferin] belongs 22.1%; to `C[C@@H](CO)CCC[C@@H](C)[C@H]1CC[C@H]2[C@@H]3CC=C4C[C@@H](O)CC[C@]4(C)[C@H]3CC[C@]12C` [27-Hydroxycholesterol], 8.1%.
